Measurements reported in PMC5133986.
These are yes or no findings as the source states them, for the method shown. Binding seen in cells or lysates may run through a third protein. Some entries that bind do so weakly or less than the wild type.

By UniProt entry, the sequences of proteins in these tests, tags left out. Residues count along the entry.
UniProt Q63604, residues 32-821: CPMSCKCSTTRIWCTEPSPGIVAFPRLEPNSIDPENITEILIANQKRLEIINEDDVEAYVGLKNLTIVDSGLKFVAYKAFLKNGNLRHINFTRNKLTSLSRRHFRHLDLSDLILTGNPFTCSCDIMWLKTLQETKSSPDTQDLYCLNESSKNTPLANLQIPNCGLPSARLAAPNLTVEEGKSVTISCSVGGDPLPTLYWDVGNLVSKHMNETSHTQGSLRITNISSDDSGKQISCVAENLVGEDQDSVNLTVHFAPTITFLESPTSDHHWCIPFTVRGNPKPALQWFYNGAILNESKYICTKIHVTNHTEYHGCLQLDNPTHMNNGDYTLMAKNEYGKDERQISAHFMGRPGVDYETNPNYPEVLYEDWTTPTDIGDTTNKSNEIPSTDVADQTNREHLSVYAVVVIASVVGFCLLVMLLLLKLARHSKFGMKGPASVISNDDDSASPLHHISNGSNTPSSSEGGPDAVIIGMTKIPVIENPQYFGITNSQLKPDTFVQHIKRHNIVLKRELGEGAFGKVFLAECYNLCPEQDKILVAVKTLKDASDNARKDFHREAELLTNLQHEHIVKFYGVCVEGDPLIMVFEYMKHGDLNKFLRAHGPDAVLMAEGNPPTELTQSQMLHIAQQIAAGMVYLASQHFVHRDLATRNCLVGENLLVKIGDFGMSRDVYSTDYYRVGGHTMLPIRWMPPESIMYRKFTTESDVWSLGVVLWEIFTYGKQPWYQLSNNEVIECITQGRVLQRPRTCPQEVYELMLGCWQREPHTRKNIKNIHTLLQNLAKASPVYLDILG
UniProt Q9R0C9: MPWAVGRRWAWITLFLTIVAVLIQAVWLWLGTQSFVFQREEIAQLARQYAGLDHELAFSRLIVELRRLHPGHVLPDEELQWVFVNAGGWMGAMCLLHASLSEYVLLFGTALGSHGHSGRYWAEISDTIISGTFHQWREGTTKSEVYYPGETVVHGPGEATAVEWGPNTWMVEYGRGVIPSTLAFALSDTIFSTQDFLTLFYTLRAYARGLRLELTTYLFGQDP

Molecular target: tropomyosin receptor kinase B (rat (endogenous in cultured E18 rat hippocampal neurons)) (UniProt Q63604)
Assay: co-IP; endogenous proteins; lysates of cultured hippocampal neurons treated with saline or cocaine (10 uM); 600 ug protein incubated with a Sig-1 R or TrkB antibody overnight at 4 °C, protein A/G beads 1.5 h at 4 °C; western blotting with a Sig-1 R or TrkB antibody

- binding: binds
Substance: sigma-1 receptor (from UniProt Q9R0C9 1-223)
